This is an account of results in PMC8826447.

Protein sequences, listed by entry. Tags and fused reporters are not part of them. Residues count along the entry.
UniProt Q9Y294, residues 1-155: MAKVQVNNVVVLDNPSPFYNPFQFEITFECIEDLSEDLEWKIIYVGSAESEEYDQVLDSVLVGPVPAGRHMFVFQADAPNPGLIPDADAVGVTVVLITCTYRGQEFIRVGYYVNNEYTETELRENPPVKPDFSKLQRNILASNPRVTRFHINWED

No constants are given. Whether binding was seen depends on the method and setting.

The target in this experiment is ASF1a-NT domain (ASF1a residues 1–155) (human) (UniProt Q9Y294). As to the kind of experiment: fluorescence polarisation; competition: 63 nM ASF1a 1–155 with 5 nM FITC tracer peptide and rising unlabeled peptide (15.6 nM to 256 μM for the TLK2 peptide); 50 mM Tris pH 8.0, 100 mM NaCl, 10 mM MgCl2, 1.2 mM DTT, 0.012% Brij-35, 0.2 mg/ml BSA; 295 K; both purified. On the technique in general: In fluorescence polarisation assays a small probe gives low polarisation when free and higher when bound to something large.

In the case of EELHSLDPRRQELAEAAATGV [TLK2 L16A/R19A/F20A triple mutant peptide], the binding entry is listed as “no binding”.
